According to patent publication US20140348880A1, “Ortho-Aminothiophenol Compounds and Uses Thereof” (Cape Breton University, priority 2013, published 2014):
Some of these results come from one statement about several compounds together.

How the values were obtained:
Test in all cases: In vitro disc diffusion assay, ZOI (Example 3)
Format in all cases: cell-based
Details in all cases: data not shown
[1] = test system: Escherichia coli (#25922)
Protocol: (§1) Sterile assay discs (6 mm diameter) were obtained from VWR Whatman and antibiotic assay discs (6 mm diameter) containing getamicin (10 μg/disc) and the combination drug sulfamethoxazole 23.75 μg/disc and trimethoprim 1.25 μg/disc were obtained from Becton, Dickinson and Company (USA). Dimethyl sulfoxide (DMSO) for microbial experiments was BioReagent™ grade and was purchased from Sigma-Aldrich. The nutrient broth and Müller-Hinton agar was purchased from Becton, Dickinson and Company (USA). Bacillus cereus, Pseudomonas aeruginosa (#27853), Klebsiella pneumonia (#13883), Proteus vulgaris (#13315), Staphylococcus aureus (#25923) and Escherichia coli (#25922) strains were obtained from the American Type Culture Collection (ATCC). All materials in contact with antimicrobial matter was treated for 40 min at 121° C. and 20 psi in a biohazard autoclave bag prior to waste disposing or washing. McFarland turbity standards containing barium sulfate were obtained from bioMérieux.
(§2) The growth medium was prepared by addition of Müller-Hinton agar (38 g) to 1 L distilled water under vigorous stirring and boiled for 10 min until complete dissolution. After cooling to 25° C., the pH value of the medium was 7.3±0.1. The medium was sterilized in an autoclave at 121° C. for 15 min at 20 psi, cooled to 45-50° C. and dispended into sterile Petri dishes on a leveled, horizontal surface to give uniform depth. Stock solutions of the microorganisms were incubated at 37° C. for 24 h and the turbidity of the microbial colonies were adjusted visually with sterile saline (0.85% w/v NaCl) to 0.5 McFarland standards. Within 15 min after adjusting the turbidity of the suspensions, the Petri dishes were inoculated using sterile cotton buds. The prepared antibiotic assay discs were placed on the surface of the seeded Müller-Hinton agar using flame sterilized forceps.
(§3) Stock solutions of compounds and the Cu complexed compounds were made in DMSO and were micropipetted onto the discs for 25 to 200 μg compound/disc. The discs were dried at ambient temperature for 30-50 min before placement onto the seeded Petri dishes which were then incubated at 37° C. for 24 h. Averaged inhibition zone measurements (mm) have an accuracy of ±0.5 mm; adjacent overlapping ZOI were determined using radii measurements.

[2] = test system: Klebsiella pneumonia (#13883)
Protocol: as §1, §2, §3

[3] = test system: Proteus vulgaris (#13315)
Protocol: as §1, §2, §3

[4] = test system: Pseudomonas aeruginosa (#27853)
Protocol: as §1, §2, §3

2-(methylthio)-N-(2-pyridylmethylene)-benzenamine copper (I) bromide [ECPP-141]
not active: Activity against Escherichia coli (in words) [1] | Activity against Klebsiella pneumonia (in words) [2] | Activity against Proteus vulgaris (in words) [3] | Activity against Pseudomonas aeruginosa (in words) [4]

2-(methylthio)-N-(2-pyridylmethylene)-benzenamine copper (I) iodide [ECPP-143]
not active: Activity against Escherichia coli (in words) [1] | Activity against Klebsiella pneumonia (in words) [2] | Activity against Proteus vulgaris (in words) [3] | Activity against Pseudomonas aeruginosa (in words) [4]
